Measurements reported in PubChem BioAssay AID1224828 (NIAID, 2016)
Purpose: 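Regulators linking TLR4 signalling to p65 nuclear translocation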 (primary screen). Cell system: mouse RAW264.7 G9 macrophage reporter cells (GFP-p65, Tnf promoter-mCherry). Reagent: siRNA pool against mouse genes, 100 nM. Timing: 2 days siRNA transfection, then 40 min LPS before fixation. Treatment: LPS (Salmonella minnesota R595) at 10 ng/ml. Measured: 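Imaged p65 nuclear translocation ratio, normalised to the plate median, converted to robust z-scores and averaged across two replicates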. Scale: p65 translocation robust z-score: higher = more nuclear NF-kappaB p65 after LPS than the plate median; nuclear/cytoplasmic p65 ratio: higher = more nuclear NF-kappaB p65. Hit rule: 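Active if robust z is above 3.3 (negative regulators) or below -1.56, the Tlr4 control median (positive regulators); activity score 50 or more; control wells not called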. Meaning of the calls: active = hit (p65 shift raised or lowered); inactive = no clear change.
The deposit covers about 17,000 reagents; below is a part drawn at random. 762 of them (4.5%) were called active. 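Active calls include both raised and lowered p65 entry, mostly lowered; wells with fewer than 50 cells lack a z-score.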 Raw values vary from plate to plate and are shown uncorrected. Entries without a mark were called inactive. Reagents against one gene are numbered here. Reagent sequences are not shown.

gene knocked down | pool no. | p65 translocation robust z-score | nuclear/cytoplasmic p65 ratio, rep 1 | nuclear/cytoplasmic p65 ratio, rep 2 | low cell count flag
Tcf4 | 1 | -0.76 | 1.48 | 1.34 | enough cells to score
Fezf2 | 1 | -0.16 | 1.46 | 1.18 | enough cells to score
Epop | 1 | -1.79 (active) | 1.26 | 1.1 | enough cells to score
Gm2a | 1 | 0.4 | 1.49 | 1.42 | enough cells to score
Rpl14 | 1 | – | 1.28 | 1.06 | fewer than 50 cells per well; well left out of scoring
Dipk1c | 1 | -0.42 | 1.47 | 1.52 | enough cells to score
Tcaf2 | 1 | -1.17 | 1.4 | 1.66 | enough cells to score
Cfap68 | 1 | 0.15 | 1.45 | 1.58 | enough cells to score
Ncln | 1 | – | 1.1 | 1.01 | fewer than 50 cells per well; well left out of scoring
Psmd6 | 1 | – | 2.17 | 1.17 | fewer than 50 cells per well; well left out of scoring
Nup58 | 1 | 0.29 | 1.82 | 1.52 | enough cells to score
D830024N08Rik | 1 | -0.89 | 1.46 | 1.4 | enough cells to score
Zfp263 | 1 | – | 1.42 | 1.41 | fewer than 50 cells per well; well left out of scoring
Npy2r | 1 | 0.38 | 1.52 | 1.68 | enough cells to score
Srcin1 | 1 | – | 1.48 | 1.18 | fewer than 50 cells per well; well left out of scoring

Targets listed so far whose gene name begins with D or d (2):
gene knocked down | pool no. | p65 translocation robust z-score | nuclear/cytoplasmic p65 ratio, rep 1 | nuclear/cytoplasmic p65 ratio, rep 2 | low cell count flag
Dipk1c | 1 | -0.42 | 1.47 | 1.52 | enough cells to score
D830024N08Rik | 1 | -0.89 | 1.46 | 1.4 | enough cells to score

More records:
gene knocked down | pool no. | p65 translocation robust z-score | nuclear/cytoplasmic p65 ratio, rep 1 | nuclear/cytoplasmic p65 ratio, rep 2 | low cell count flag
Mettl28 | 1 | 0.5 | 1.43 | 1.57 | enough cells to score
Gtf3c5 | 1 | -0.38 | 1.39 | 1.32 | enough cells to score
Ppp1r12a | 1 | -0.67 | 1.38 | 1.35 | enough cells to score
Arpp21 | 1 | -0.28 | 1.28 | 1.24 | enough cells to score
Arpp21 | 2 | 0.06 | 1.57 | 1.43 | enough cells to score
Lin52 | 1 | – | 1.32 | 1.46 | fewer than 50 cells per well; well left out of scoring
Dync1li1 | 1 | – | 1.3 | 1.2 | fewer than 50 cells per well; well left out of scoring
Dhh | 1 | 1.67 | 1.74 | 1.56 | enough cells to score
Plxdc1 | 1 | – | 1.2 | 1.08 | fewer than 50 cells per well; well left out of scoring
